# Out of some 300,000 compounds screened, about 5,400 (1.8%) were called active. Inconclusive results, whose numbers are uncertain, are shown with a selection of clear calls. Calls come from the whole dose curve; tested in HEK293 cells. Where the call is inconclusive, the potency comes from a doubtful curve fit.
# Experiment: qHTS for inhibitors of binding or entry into cells for Marburg Virus
# Conditions: Marburg virus pseudotyped entry inhibition, cell reporter; activity change, negative = inhibition: at 37.8 µM (top of the series) unless noted
# % is set by controls: 0 for no effect and ±100 for the full control effect; potency is the fitted concentration of half-maximal effect.
Structure (SMILES),Potency,"activity change, negative = inhibition"
Cc1nn(Cc2c(F)c(F)c(F)c(F)c2F)c(C)c1NC(=O)c1cccc(COc2ccc(Cl)cc2)c1,"inconclusive: 25.9 µM [inhibitor, single point]",
O=C(Cc1cn2ccsc2n1)OCc1ccccc1,active: 7.08 µM,
Cc1ccc(-c2[nH]nc(N)c2N=Nc2cccc(Cl)c2C)cc1,active: 20 µM,
COc1ccccc1Nc1c2c(nc3ccc(NC(=O)/C=C/c4cc(OC)c(OC)c(OC)c4)cc13)CCCC2,"inconclusive: 35.5 µM [inhibitor, partial curve, poor fit]",
O=C(NC1CC2CCCC(C1)N2Cc1ccco1)NC12CC3CC(CC(C3)C1)C2 (stereo unspecified),"inconclusive: 4.61 µM [inhibitor, partial curve, poor fit]",
CC(Sc1nc2ccccc2c(=O)n1C)C(=O)N(C)C1CCCCC1 (stereo unspecified),"inconclusive: 10 µM [inhibitor, partial curve, poor fit]",
O=C(O)c1ccc(NS(=O)(=O)c2ccc(Cl)c(Cl)c2)cc1O,,inactive: 10.2% [at 46.1 µM]
COc1cccc(CCc2nnc(CCC(=O)NCCc3cccc(C)n3)o2)c1,"inconclusive: 31.6 µM [activator, single point]",
CCCNC(=O)COC(=O)/C=C/c1ccc2c(c1)OCO2,,inactive: -0.12%
Cc1ccc(O)c(CNc2nccs2)c1,"inconclusive: 12.6 µM [activator, partial curve, poor fit]",
Cc1cc(C)c(S(=O)(=O)N2CCN(C(=O)c3ccc(-n4cncn4)c([N+](=O)[O-])c3)CC2)c(C)c1,,inactive: -5.5%
CCN(CC)C(=O)CSc1nc2c(sc(=S)n2-c2ccccc2)c(=O)n1-c1ccccc1OC,"inconclusive: 10 µM [inhibitor, partial curve, poor fit]",
Cc1nc2sccn2c1-c1csc(NCc2ccccc2)n1,"inconclusive: 14.6 µM [inhibitor, partial curve, poor fit]",
CCOc1cc(N2CCOCC2)c(OCC)cc1NS(=O)(=O)c1ccc(Cl)s1,"inconclusive: 5.01 µM [inhibitor, full curve, poor fit]",
O=c1c(Sc2ccccc2)c(C(F)(F)F)[nH]n1-c1ccccc1,"inconclusive: 0.92 µM [inhibitor, full curve, poor fit]",
N#C/C(=C\c1cccc(Oc2ccccc2)c1)C(=O)N1CCOCC1,"inconclusive: 12.6 µM [inhibitor, partial curve, poor fit]",
Cc1nc(S(=O)(=O)N(C)c2ccccc2)c(C#N)c(C)c1Cl,"inconclusive: 10 µM [inhibitor, partial curve, poor fit]",
O=C(Nc1cc(-c2nc3cc(Cl)ccc3o2)ccc1Cl)c1cccc2ccccc12,,inactive: 8.11% [at 46.1 µM]
CC(C)(C)c1ccc(OCc2ccc(C(=O)Nc3cccnc3)o2)cc1,"inconclusive: 7.08 µM [inhibitor, partial curve, poor fit]",
COc1ccc(C(=O)NCCC2=CCCCC2)cc1OC1CCN(C(C)C)CC1,"inconclusive: 17.8 µM [inhibitor, single point]",
COc1ccc(/C=C/C(=O)NC2=NCCS2)cc1OC,"inconclusive: 10 µM [activator, partial curve, poor fit]",

Structure (SMILES),Potency,"activity change, negative = inhibition"
CN(C)c1ccc(NC(=S)NC(=O)/C=C/c2ccc(Cl)cc2)cc1,"inconclusive: 4.47 µM [activator, full curve, poor fit]",
O=C(CCS(=O)(=O)c1cccs1)Nc1ccc(C(=O)NCc2ccccc2)cc1,"inconclusive: 6.31 µM [activator, single point]",
O=S(=O)(Nc1ccc(F)cc1F)c1ccc(Br)s1,,inactive: 29.2% [at 46.1 µM]
S=C(Nc1ccccc1)Nc1ccc(Cl)cc1Cl,,inactive: -21.6%
COc1ccc(OCc2ccc(-c3nc(C#N)c(N4CCC(C(N)=O)CC4)o3)o2)cc1,,inactive: 2.47% [at 46.1 µM]
N#C/C=C/N1CCN(Cc2ccc3c(c2)OCO3)CC1,"inconclusive: 15.8 µM [inhibitor, single point]",
CCc1ccc(NC(=O)C2CC(=O)N(C(C)C)C2)cc1 (stereo unspecified),"inconclusive: 0.92 µM [activator, partial curve]",
COc1ccc(C2C(C#N)=C(N)N(c3sc4c(c3C#N)CCCC4)C3=C2C(=O)CC(C)(C)C3)cc1 (stereo unspecified),"inconclusive: 8.2 µM [inhibitor, partial curve, poor fit]",
CCOCCCn1c(=S)[nH]c2cc(C(=O)NCCN(CC)CC)ccc2c1=O,"inconclusive: 4.61 µM [inhibitor, full curve, poor fit]",
O=c1cc(C(F)(F)F)[nH]c2ccc(OC(F)(F)F)cc12,"inconclusive: 35.5 µM [inhibitor, single point]",
Cc1ccc(NC(=O)CC(C)c2ccccc2)cc1S(=O)(=O)N1CCOCC1 (stereo unspecified),"inconclusive: 35.5 µM [inhibitor, single point]",
Cn1c(=O)c2c(nc(NCCCO)n2C/C=C/c2ccccc2)n(C)c1=O,"inconclusive: 12.6 µM [inhibitor, partial curve, poor fit]",
Cn1c(CO)cnc1SCC(=O)c1ccc(F)cc1,,inactive: -14.2% [at 46.1 µM]
COc1ccc(NC(=O)NC23CC4CC(CC(C4)C2)C3)cc1OC,,inactive: 13.8%
Cc1cccn2c(=O)c3cc(C(=O)N(C)C)n(C)c3nc12,"inconclusive: 0.0058 µM [activator, full curve, poor fit]",
CN1CCN(S(=O)(=O)c2ccc(NC(=O)Nc3cccc(Cl)c3)cc2)CC1,"inconclusive: 12.6 µM [inhibitor, partial curve, poor fit]",
Cc1ccccc1C(=O)OCc1nnc(-c2ccc(Cl)cc2)o1,"inconclusive: 8.91 µM [activator, partial curve]",
CC(=O)N1CCN(c2cc(N3CCc4ccccc4C3)c(F)cc2[N+](=O)[O-])CC1,"inconclusive: 0.92 µM [activator, single point]",
O=C(c1ccc(Nc2nc3ccccc3n3nnnc23)cc1)N1CCN(c2ccc(F)cc2)CC1,,inactive: 28.7% [at 46.1 µM]
Cc1nn(Cc2ccc(C(=O)N3N=C(C(F)F)CC3(O)C(F)F)o2)c(C)c1[N+](=O)[O-] (stereo unspecified),"inconclusive: 35.5 µM [inhibitor, single point]",

# An excerpt from the list above, for reference:
Structure (SMILES),Potency,"activity change, negative = inhibition"
Cn1c(CO)cnc1SCC(=O)c1ccc(F)cc1,,inactive: -14.2% [at 46.1 µM]
COc1ccc(NC(=O)NC23CC4CC(CC(C4)C2)C3)cc1OC,,inactive: 13.8%
Cc1cccn2c(=O)c3cc(C(=O)N(C)C)n(C)c3nc12,"inconclusive: 0.0058 µM [activator, full curve, poor fit]",
